{"sequences": {"note": "Sequences of proteins named here, by UniProt entry; tags and fusion partners are left off. Residues count along the entry.", "UniProt Q8TBC4, whole entry A171T": "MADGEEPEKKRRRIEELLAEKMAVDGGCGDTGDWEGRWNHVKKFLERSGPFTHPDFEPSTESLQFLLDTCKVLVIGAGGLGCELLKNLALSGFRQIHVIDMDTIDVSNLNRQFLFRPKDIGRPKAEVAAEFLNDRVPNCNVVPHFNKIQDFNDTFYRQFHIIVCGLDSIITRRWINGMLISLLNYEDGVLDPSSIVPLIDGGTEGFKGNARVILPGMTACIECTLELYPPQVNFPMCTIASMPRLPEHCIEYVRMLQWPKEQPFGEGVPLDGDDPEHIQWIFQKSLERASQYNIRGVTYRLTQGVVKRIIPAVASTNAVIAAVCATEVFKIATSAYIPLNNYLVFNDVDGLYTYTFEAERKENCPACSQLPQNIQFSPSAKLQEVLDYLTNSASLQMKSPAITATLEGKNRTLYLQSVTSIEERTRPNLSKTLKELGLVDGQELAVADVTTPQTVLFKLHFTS", "UniProt Q13564, whole entry partner": "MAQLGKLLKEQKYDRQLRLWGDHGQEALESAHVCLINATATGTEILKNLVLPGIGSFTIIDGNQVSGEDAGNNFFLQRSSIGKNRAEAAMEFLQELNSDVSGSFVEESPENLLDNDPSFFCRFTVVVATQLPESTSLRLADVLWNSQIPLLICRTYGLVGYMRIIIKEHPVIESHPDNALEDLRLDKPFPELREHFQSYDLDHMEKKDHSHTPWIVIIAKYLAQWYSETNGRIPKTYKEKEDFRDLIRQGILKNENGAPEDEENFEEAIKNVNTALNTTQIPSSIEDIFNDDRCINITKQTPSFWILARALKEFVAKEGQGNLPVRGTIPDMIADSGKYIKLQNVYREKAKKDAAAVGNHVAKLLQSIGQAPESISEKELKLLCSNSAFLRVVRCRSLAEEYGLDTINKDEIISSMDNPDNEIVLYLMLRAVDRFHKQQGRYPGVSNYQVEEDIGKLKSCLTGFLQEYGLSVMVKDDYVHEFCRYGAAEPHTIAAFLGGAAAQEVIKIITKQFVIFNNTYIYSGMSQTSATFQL", "UniProt Q15843, 1-76 partner limits assumed": "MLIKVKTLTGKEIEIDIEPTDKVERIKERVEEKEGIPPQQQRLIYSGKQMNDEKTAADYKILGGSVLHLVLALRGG"}, "source": "patent US20170107579A1", "about": "“E1 ENZYME MUTANTS AND USES THEREOF” (Millennium Pharmaceuticals, Inc., priority 2011, published 2017)", "target": "UBA3 variant with A171T mutation (NAE) (Homo sapiens, UniProt Q8TBC4, A171T)", "assay": "NAE HTRF assay, IC50 at KM for ATP (120 μM)", "settings": "ratio of IC50 A171T mutant to IC50 wild type", "note": "The structures given here were assigned with low confidence; some may be wrong.", "data": [{"smiles": "NS(=O)(=O)OC[C@H]1O[C@@H](n2cnc3c(N[C@@H]4c5ccccc5C[C@@H]4O)ncnc32)[C@H](O)[C@@H]1O", "values": [{"measurement": "A171T/WT", "value": 3}]}]}
